In article PMC8213198:
Results are given in words; binding and its absence hold for the method and conditions named. In cells and extracts the contact can be indirect. Some entries that bind do so weakly or less than the wild type. Where a sequence is shown, tags or fusion partners need not be part of it.

Columns and labels:
[1] = target: T1, Flag-C-NDP52 (C-terminal cleavage fragment of NDP52) (UniProt Q13137); test: co-IP; HeLa transfected with Flag-NDP52^wt or Flag-C-NDP52 for 24 h; lysates precipitated with anti-Flag antibody; Western blot for TBK1, normalised to anti-Flag IgG light chain
T1 sequence: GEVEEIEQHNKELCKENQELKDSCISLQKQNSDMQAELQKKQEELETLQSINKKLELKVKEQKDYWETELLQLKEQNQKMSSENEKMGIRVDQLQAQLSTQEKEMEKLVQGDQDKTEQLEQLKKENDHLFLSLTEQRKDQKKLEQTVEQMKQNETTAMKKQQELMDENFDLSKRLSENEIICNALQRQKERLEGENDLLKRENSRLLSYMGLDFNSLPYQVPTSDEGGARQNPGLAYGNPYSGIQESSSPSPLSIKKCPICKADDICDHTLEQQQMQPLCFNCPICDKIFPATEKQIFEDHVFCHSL

[2] = target: T2, Flag-NDP52^wt (calcium-binding and coiled-coil domain-containing protein 2/nuclear dot 10 protein 52) (UniProt Q13137); test: as above
T2 sequence: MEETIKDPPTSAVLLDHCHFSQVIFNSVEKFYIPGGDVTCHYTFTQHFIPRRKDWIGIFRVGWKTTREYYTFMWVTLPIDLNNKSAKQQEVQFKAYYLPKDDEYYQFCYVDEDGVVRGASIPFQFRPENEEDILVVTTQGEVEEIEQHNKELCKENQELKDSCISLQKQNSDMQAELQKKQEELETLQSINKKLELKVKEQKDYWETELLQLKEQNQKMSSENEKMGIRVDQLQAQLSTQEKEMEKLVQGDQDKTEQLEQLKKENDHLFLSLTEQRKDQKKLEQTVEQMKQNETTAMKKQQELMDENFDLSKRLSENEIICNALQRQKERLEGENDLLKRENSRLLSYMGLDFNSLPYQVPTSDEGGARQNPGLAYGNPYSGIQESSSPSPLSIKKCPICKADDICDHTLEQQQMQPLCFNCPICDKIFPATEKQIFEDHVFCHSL

B1: TANK-binding kinase 1 (TBK1) (enzyme, UniProt Q9UHD2 1-729)
chain: MQSTSNHLWLLSDILGQGATANVFRGRHKKTGDLFAIKVFNNISFLRPVDVQMREFEVLKKLNHKNIVKLFAIEEETTTRHKVLIMEFCPCGSLYTVLEEPSNAYGLPESEFLIVLRDVVGGMNHLRENGIVHRDIKPGNIMRVIGEDGQSVYKLTDFGAARELEDDEQFVSLYGTEEYLHPDMYERAVLRKDHQKKYGATVDLWSIGVTFYHAATGSLPFRPFEGPRRNKEVMYKIITGKPSGAISGVQKAENGPIDWSGDMPVSCSLSRGLQVLLTPVLANILEADQEKCWGFDQFFAETSDILHRMVIHVFSLQQMTAHKIYIHSYNTATIFHELVYKQTKIISSNQELIYEGRRLVLEPGRLAQHFPKTTEENPIFVVSREPLNTIGLIYEKISLPKVHPRYDLDGDASMAKAITGVVCYACRIASTLLLYQELMRKGIRWLIELIKDDYNETVHKKTEVVITLDFCIRNIEKTVKVYEKLMKINLEAAELGEISDIHTKLLRLSSSQGTIETSLQDIDSRLSPGGSLADAWAHQEGTHPKDRNVEKLQVLLNCMTEIYYQFKKDKAERRLAYNEEQIHKFDKQKLYYHATKAMTHFTDECVKKYEAFLNKSEEWIRKMLHLRKQLLSLTNQCFDIEEEVSKYQEYTNELQETLPQKMFTASSGIKHTMTPIYPSSNTLVEMTLGMKKLKEEMEGVVKELAENNHILERFGSLTMDGGLRNVDCL
[1]
  binding: binds weakly
[2]
  binding: binds
